Two substances from patent publication US10047122B2 (The United States of America, as represented by the …, priority 2013, dated 2018) can be followed below.

The data set in a line: general procedure: Fmoc solid-phase peptide synthesis; NovaSyn TG Sieber resin; HBTU/HOBT/DIPEA. To be noted: whole synthesis.

HELM strings list residues between dots; [ac] is acetyl, [am] amide, other brackets name non-standard units.

In the case of “PEPTIDE1{[ac].P.L.H.S.[Thr(PO3POM2)].[am]}$$$$V2.0”, the “final LC-MS purity” value (HPLC, scale 0.1 mmol) is given as more than 99%.
Take “PEPTIDE1{[ac].P.L.H.S.[Pmab(POM)2].[am]}$$$$V2.0”: the “final HPLC purity” value (HPLC-MS, scale of the general procedure 0.1 mmol) is reported as more than 99%.
